The campaign covered roughly 340,000 compounds. About 6,200 (1.8%) were called active. The inconclusive results got no clear call from the source; some entries with a clear call stand among them for comparison. Calls come from the whole dose curve; as a rule, active = well fitted activation curve with a large enough effect; inconclusive = small, poorly fitted or top-dose-only effect; inactive = no such curve, though single readings can be large or run the other way. Potencies beside an inconclusive call are fits to weak or partial responses and may not hold up.
Test: A quantitative high throughput screen for small molecules that induce DNA re-replication in SW480 colon adenocarcinoma cells. Note: nearly all actives have a fitted effect of over 55% in size.
Conditions: Hoechst DNA content imaging, 48 h; series mostly up to 46.1 µM
Outline: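 Quantitative HTS format with DMSO vehicle controls; 48 hr drug incubation at 37 C, then 40 min Hoechst staining and scanning imager measurement at 405 nm excitation.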
Potency is the fitted concentration of half-maximal effect.

Row | Compound | Potency
1 | O=[N+]([O-])c1cc2c(cc1/C=N/Nc1nc(Nc3ccccc3)nc(N3CCCCC3)n1)OCO2 | inconclusive: 18.4 µM [activator, partial curve, poor fit]
2 | O=C1CN(C(=O)NCC(=O)N2CCCC2)c2ccccc2N1 | inactive
3 | Cc1cccc(NC(=O)/C(=C/c2cccc([N+](=O)[O-])c2)NC(=O)c2cccs2)c1 | inconclusive: 5.8 µM [activator, full curve]
4 | COc1ccc(CCN(C)c2ncnc3sccc23)cc1OC | inconclusive: 14.6 µM [activator, partial curve, poor fit]
5 | C=CCc1cccc([C@@H]2[C@@H](C)CC[C@H]3C(=O)N4[C@@H](c5cc(OC)c(OC)c(OC)c5)c5[nH]c6ccccc6c5C[C@H]4C(=O)N23)c1 | inconclusive: 11.6 µM [activator, partial curve, poor fit]
6 | CCN(CC)CCCC(C)Nc1nccc2c(Cl)cccc12 (stereo not drawn) | inconclusive: 20.6 µM [activator, single point]
7 | O=C(Nc1ccccc1)c1sc(N2CCOCC2)nc1-c1ccccc1 | inactive
8 | CCOC(=O)[C@H](CCc1ccccc1)N[C@@H](C)C(=O)N1CCC[C@H]1C(=O)O | inconclusive: 0.112 µM [activator, full curve, poor fit]
9 | COc1ccccc1CCC(=O)Nc1nc2ccccc2[nH]1 | inconclusive: 14.6 µM [activator, single point]
10 | CC(C)C[C@H](N)c1nnc(SCC(=O)Nc2ccc(Br)cc2)o1 | inconclusive: 20.6 µM [activator, partial curve, poor fit]
11 | O=C(CCNc1ccc(F)c(Cl)c1)c1ccco1 | inconclusive: 5.8 µM [activator, partial curve, poor fit]
12 | O=C(Oc1cccc2cccnc12)c1cccs1 | inconclusive: 3.26 µM [activator, full curve]
13 | Cc1cc(S(=O)(=O)Nc2nc(CN3CCOCC3)nc3sc4c(c23)CCC4)ccc1F | inconclusive: 29.1 µM [activator, single point]
14 | CCN=C1SC(CC(N)=O)C(=O)N1CC (stereo not drawn) | inconclusive: 8.2 µM [activator, partial curve, poor fit]
15 | NS(=O)(=O)c1ccc(NCc2cc(Cl)ccc2OCc2ccc(F)cc2)cc1 | inactive
16 | CCOC(=O)C1=C(C)NC(SC)=C(C#N)C1CC(C)C (stereo not drawn) | active: 7.31 µM
17 | COc1ccc2[nH]c(C)c(CCNC(=S)Nc3cc(C)ccc3C)c2c1 | active: 16.4 µM
18 | CCOc1ccccc1Cn1c(=O)sc2ccccc21 | inconclusive: 29.1 µM [activator, single point]

Random excerpt: two records from the list.
Row | Compound | Potency
8 | CCOC(=O)[C@H](CCc1ccccc1)N[C@@H](C)C(=O)N1CCC[C@H]1C(=O)O | inconclusive: 0.112 µM [activator, full curve, poor fit]
2 | O=C1CN(C(=O)NCC(=O)N2CCCC2)c2ccccc2N1 | inactive
